For part of these data: Where cells or extracts were used, other partners may take part. For part of these data: Construct, isoform or probe ends are uncertain for at least one entry. For part of these data: A negative result means that nothing was seen under these conditions. For part of these data: Tags and fusion partners may be left off the protein sequences shown.
Experiments:
Assay in all cases: EMSA
[1] = target: T1, AhR (murine) alone (Mus musculus) (UniProt Q8R4S5); conditions: no binding without ARNT; protein translated in vitro; label: 32P end-label
T1 sequence: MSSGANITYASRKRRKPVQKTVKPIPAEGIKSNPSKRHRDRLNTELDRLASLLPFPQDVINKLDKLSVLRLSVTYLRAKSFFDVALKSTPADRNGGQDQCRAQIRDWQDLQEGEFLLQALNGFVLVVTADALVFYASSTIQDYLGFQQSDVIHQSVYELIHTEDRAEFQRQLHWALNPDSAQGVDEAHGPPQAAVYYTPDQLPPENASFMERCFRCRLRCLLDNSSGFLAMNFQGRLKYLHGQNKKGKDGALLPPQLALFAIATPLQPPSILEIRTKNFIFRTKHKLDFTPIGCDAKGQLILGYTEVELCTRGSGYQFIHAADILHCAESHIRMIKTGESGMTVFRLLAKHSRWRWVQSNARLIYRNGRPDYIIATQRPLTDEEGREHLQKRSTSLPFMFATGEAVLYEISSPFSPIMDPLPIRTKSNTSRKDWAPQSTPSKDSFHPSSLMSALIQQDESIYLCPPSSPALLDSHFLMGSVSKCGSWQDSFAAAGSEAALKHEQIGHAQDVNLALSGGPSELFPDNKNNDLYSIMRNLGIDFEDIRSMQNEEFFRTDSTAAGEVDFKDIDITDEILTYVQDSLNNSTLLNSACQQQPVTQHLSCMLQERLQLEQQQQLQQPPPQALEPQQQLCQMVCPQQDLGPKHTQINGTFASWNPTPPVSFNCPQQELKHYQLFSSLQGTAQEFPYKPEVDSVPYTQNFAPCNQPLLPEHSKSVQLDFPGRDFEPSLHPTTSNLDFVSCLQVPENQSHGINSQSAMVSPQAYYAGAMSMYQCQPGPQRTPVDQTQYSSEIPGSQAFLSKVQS

Chains of the proteins cited; added tags and fusions are not shown. Chains listed by the source or under a name are the forms on record and can include a tag or linker.
AhR-ARNT in human SCC cell cytosol (Homo sapiens), one chain, as listed by the source, chain 2 of 2: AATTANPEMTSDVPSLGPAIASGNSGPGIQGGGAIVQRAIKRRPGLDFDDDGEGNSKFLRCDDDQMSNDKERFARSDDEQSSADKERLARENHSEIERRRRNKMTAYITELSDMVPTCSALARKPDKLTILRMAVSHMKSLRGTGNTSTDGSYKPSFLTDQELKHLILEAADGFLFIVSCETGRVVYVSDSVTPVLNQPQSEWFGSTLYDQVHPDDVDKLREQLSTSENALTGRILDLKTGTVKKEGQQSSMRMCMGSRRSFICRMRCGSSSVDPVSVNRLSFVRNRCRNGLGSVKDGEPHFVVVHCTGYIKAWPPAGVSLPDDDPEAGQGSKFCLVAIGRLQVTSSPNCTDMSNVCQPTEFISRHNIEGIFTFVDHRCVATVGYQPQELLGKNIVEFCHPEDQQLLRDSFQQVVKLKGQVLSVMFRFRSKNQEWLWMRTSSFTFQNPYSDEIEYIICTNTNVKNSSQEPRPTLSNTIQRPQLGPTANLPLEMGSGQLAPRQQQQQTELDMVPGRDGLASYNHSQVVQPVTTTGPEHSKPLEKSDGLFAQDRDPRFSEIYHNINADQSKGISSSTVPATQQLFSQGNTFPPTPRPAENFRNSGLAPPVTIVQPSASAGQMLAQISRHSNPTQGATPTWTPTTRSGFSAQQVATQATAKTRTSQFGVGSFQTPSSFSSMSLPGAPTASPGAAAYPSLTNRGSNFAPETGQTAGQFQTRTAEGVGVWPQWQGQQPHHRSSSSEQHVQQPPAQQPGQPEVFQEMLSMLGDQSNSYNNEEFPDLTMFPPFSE
AhR-ARNT in human SCC cell cytosol (Homo sapiens), one chain, as listed by the source, chain 1 of 2: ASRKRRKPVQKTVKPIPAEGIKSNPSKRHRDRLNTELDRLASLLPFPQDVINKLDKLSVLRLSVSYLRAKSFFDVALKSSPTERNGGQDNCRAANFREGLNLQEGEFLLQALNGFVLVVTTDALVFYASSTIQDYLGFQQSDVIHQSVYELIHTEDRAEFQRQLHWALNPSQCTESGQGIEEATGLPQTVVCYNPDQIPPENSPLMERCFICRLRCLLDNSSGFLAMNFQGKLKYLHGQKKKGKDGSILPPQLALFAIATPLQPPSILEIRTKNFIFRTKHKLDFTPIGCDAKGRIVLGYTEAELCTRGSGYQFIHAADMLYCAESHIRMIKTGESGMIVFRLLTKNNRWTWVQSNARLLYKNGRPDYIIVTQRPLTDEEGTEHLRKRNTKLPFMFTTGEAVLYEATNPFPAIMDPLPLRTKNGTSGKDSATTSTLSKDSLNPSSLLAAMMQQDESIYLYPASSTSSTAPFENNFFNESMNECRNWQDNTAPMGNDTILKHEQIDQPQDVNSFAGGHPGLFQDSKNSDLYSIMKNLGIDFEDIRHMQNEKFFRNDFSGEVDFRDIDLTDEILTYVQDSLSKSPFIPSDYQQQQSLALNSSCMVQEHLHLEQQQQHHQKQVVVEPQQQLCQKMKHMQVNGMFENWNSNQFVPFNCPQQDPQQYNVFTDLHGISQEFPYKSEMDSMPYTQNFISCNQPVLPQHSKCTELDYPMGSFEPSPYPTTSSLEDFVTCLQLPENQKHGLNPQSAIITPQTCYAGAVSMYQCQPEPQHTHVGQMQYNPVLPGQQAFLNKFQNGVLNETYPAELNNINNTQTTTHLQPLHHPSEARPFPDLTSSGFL
AhR-ARNT in Hepa 1c1c7 cytosol (Mus musculus), one chain, as listed by the source: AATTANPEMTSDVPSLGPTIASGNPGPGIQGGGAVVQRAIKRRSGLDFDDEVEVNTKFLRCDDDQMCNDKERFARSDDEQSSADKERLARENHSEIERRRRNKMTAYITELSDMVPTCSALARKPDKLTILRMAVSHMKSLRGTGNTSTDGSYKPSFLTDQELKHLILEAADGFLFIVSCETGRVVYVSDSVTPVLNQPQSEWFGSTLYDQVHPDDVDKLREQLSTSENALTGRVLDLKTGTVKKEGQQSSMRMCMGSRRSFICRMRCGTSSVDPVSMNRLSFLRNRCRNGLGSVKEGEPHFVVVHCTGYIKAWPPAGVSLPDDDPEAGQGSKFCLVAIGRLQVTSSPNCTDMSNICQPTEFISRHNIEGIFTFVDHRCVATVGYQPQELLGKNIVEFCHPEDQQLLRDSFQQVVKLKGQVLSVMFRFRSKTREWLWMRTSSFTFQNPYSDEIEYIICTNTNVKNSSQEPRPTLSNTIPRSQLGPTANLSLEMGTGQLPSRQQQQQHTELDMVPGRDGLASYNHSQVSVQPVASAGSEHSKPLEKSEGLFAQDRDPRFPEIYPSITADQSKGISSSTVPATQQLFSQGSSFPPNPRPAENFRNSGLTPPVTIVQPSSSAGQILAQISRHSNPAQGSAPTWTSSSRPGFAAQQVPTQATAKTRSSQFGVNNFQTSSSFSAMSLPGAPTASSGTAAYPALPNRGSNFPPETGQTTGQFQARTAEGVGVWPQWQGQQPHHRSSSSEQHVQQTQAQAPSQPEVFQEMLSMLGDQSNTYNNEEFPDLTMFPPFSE

[2] = system: AhR-ARNT in Hepa 1c1c7 cytosol (Mus musculus); conditions: 20 nM TCDD, 30 C; 35 ug cytosol; ligand dependent; protein in an extract; label: 32P end-label
[3] = system: AhR-ARNT in human SCC cell cytosol (Homo sapiens); conditions: 20 nM TCDD, room temperature; 35 ug cytosol; ligand dependent; protein in an extract; label: 32P end-label

“TCGAGTAGATCACGCAATGGGCCCAGC / TCGAGCTGGGCCCATTGCGTGATCTAC [DRE3]”: no binding [1]; binds [2]; binds [3].

From patent publication US5378822
